Reference: publication PMC10237644
Results are given in words; binding and its absence hold for the method and conditions named. In cells and extracts the contact can be indirect. Some binding calls cover weakened binding; strength is not graded here. Where a sequence is shown, tags or fusion partners need not be part of it.

Experiments:
[1] = biological target: T1, Pbp1 M8F (eight methionines of the LCD mutated to phenylalanine), epitope-tagged (S. cerevisiae) (UniProt P53297); assay: co-IP; anti-Flag M2 on Dynabeads Protein G added to cleared yeast lysates, 1–2 h at 4°C; lysis buffer 50 mM HEPES pH 7.5, 150 mM NaCl, 10 mM MgCl2, NP-40; wash 50 mM HEPES pH 7.5, 150 mM NaCl, 1 mM EDTA, 0.2% NP-40; HA blot; cells grown in YPD and switched to YPL (time points, mostly 3 h)
T1 sequence: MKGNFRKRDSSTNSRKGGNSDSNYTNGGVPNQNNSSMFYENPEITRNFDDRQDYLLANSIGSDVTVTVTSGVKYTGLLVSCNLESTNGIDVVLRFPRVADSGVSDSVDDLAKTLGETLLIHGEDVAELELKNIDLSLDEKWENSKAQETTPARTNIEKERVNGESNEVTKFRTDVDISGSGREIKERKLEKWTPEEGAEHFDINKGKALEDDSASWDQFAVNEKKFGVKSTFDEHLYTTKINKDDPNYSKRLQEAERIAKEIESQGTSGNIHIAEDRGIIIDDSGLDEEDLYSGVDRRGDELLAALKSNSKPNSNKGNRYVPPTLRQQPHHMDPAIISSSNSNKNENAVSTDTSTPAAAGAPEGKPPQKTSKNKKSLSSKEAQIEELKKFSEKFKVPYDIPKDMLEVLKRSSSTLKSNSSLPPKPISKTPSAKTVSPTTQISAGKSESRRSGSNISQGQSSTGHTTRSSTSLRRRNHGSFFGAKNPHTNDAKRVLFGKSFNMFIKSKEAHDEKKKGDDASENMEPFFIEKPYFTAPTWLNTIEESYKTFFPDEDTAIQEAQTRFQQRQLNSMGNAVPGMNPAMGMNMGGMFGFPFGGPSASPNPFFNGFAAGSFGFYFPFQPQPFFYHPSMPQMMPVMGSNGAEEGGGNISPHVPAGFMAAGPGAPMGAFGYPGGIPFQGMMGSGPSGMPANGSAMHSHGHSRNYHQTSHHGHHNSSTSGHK

[2] = biological target: T2, Pbp1 M8Y (eight methionines of the LCD mutated to tyrosine), epitope-tagged (S. cerevisiae) (UniProt P53297); assay: as above
T2 sequence: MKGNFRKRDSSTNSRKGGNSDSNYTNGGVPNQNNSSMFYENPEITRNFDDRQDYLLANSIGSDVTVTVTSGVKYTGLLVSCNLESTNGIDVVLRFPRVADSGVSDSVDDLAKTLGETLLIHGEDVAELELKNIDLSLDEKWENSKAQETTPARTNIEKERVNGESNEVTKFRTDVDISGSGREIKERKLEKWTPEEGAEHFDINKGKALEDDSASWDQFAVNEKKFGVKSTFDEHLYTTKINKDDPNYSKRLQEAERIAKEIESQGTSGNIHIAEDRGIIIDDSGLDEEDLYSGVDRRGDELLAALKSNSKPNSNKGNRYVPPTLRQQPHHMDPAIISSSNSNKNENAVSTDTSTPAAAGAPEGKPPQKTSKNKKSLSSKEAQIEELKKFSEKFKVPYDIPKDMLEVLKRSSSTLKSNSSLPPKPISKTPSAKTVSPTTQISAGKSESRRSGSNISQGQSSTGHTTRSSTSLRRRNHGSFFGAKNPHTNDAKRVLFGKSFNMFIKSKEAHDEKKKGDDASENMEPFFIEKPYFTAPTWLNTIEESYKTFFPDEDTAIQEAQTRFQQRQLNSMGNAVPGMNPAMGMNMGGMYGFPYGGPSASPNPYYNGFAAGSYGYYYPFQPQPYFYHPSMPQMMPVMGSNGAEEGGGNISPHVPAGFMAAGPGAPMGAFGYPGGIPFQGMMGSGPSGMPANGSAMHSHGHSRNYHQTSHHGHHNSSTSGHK

[3] = biological target: T3, Pbp1 M8S (eight methionines of the LCD mutated to serine), epitope-tagged (S. cerevisiae) (UniProt P53297); assay: as above
T3 sequence: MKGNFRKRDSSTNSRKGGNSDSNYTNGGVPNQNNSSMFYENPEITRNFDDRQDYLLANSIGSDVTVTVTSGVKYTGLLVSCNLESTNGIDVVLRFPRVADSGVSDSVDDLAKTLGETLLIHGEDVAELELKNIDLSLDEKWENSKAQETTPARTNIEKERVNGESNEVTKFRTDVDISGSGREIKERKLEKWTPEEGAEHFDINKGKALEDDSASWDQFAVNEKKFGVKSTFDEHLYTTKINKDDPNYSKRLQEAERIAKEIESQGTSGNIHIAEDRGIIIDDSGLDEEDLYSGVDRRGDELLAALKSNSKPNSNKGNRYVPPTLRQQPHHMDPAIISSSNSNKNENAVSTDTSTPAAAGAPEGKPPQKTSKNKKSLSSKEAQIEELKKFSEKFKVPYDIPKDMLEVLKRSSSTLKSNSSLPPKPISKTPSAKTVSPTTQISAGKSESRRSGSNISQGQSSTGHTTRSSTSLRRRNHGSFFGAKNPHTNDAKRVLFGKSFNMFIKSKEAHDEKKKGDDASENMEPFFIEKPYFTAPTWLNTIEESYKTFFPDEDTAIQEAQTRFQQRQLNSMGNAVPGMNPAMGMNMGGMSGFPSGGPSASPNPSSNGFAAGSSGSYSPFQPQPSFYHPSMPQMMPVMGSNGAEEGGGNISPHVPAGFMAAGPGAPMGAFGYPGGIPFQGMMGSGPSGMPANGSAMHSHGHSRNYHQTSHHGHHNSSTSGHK

[4] = biological target: T4, Pbp1-FLAG (poly(A)-binding protein-binding protein 1, C-terminal Flag tag) (S. cerevisiae) (UniProt P53297); assay: as above
T4 sequence: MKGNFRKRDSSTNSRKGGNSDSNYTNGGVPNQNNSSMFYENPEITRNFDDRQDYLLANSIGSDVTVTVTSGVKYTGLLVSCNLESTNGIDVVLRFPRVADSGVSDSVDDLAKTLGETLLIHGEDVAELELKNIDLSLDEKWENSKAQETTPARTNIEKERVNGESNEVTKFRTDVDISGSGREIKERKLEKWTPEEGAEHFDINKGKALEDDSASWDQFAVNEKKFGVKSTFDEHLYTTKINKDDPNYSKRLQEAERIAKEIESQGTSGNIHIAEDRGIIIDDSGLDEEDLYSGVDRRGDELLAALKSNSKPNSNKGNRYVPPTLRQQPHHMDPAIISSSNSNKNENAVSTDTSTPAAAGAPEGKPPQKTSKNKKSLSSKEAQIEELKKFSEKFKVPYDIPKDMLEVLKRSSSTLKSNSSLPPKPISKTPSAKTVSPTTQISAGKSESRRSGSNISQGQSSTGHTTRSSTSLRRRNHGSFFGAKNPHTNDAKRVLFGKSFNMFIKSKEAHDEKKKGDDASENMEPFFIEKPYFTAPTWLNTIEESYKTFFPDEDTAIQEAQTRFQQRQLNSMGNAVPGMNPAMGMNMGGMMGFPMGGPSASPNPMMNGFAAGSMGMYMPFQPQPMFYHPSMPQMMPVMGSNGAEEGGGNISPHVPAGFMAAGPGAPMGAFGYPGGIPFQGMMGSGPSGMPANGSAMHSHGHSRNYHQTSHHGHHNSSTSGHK

[5] = biological target: T4, Pbp1-FLAG (poly(A)-binding protein-binding protein 1, C-terminal Flag tag) (S. cerevisiae); assay: co-IP; Flag immunoprecipitation of Pbp1-Flag or Puf3-Flag from yeast grown in YPD or switched to YPL for 3 h; beads treated with or without RNase If for 15 min

Measured: binding

B1: Puf3-HA (C-terminal HA tag) (protein, UniProt Q07807 1-879)
chain: MEMNMDMDMDMELASIVSSLSALSHSNNNGGQAAAAGIVNGGAAGSQQIGGFRRSSFTTANEVDSEILLLHGSSESSPIFKKTALSVGTAPPFSTNSKKFFGNGGNYYQYRSTDTASLSSASYNNYHTHHTAANLGKNNKVNHLLGQYSASIAGPVYYNGNDNNNSGGEGFFEKFGKSLIDGTRELESQDRPDAVNTQSQFISKSVSNASLDTQNTFEQNVESDKNFNKLNRNTTNSGSLYHSSSNSGSSASLESENAHYPKRNIWNVANTPVFRPSNNPAAVGATNVALPNQQDGPANNNFPPYMNGFPPNQFHQGPHYQNFPNYLIGSPSNFISQMISVQIPANEDTEDSNGKKKKKANRPSSVSSPSSPPNNSPFPFAYPNPMMFMPPPPLSAPQQQQQQQQQQQQEDQQQQQQQENPYIYYPTPNPIPVKMPKDEKTFKKRNNKNHPANNSNNANKQANPYLENSIPTKNTSKKNASSKSNESTANNHKSHSHSHPHSQSLQQQQQTYHRSPLLEQLRNSSSDKNSNSNMSLKDIFGHSLEFCKDQHGSRFIQRELATSPASEKEVIFNEIRDDAIELSNDVFGNYVIQKFFEFGSKIQKNTLVDQFKGNMKQLSLQMYACRVIQKALEYIDSNQRIELVLELSDSVLQMIKDQNGNHVIQKAIETIPIEKLPFILSSLTGHIYHLSTHSYGCRVIQRLLEFGSSEDQESILNELKDFIPYLIQDQYGNYVIQYVLQQDQFTNKEMVDIKQEIIETVANNVVEYSKHKFASNVVEKSILYGSKNQKDLIISKILPRDKNHALNLEDDSPMILMIKDQFANYVIQKLVNVSEGEGKKLIVIAIRAYLDKLNKSNSLGNRHLASVEKLAALVENAEV
binds: all assays above
